According to article PMC13377104:
Numbering of substitutions follows the chain as printed. Results are given in words; binding and its absence hold for the method and conditions named. In cells and extracts the contact can be indirect. Some results given as binding are weak or reduced against the parent protein; the word gives no strength. Where a sequence is shown, tags or fusion partners need not be part of it.

Protein sequences, listed by entry. Tags and fused reporters are not part of them. Residues count along the entry.
UniProt Q9XEB5, residues 1-117: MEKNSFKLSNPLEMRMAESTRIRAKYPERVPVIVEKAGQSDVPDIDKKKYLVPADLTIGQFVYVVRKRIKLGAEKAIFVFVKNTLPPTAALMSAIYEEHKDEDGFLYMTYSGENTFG

Key:
[1] = target: T1, GST-ATG8A (Arabidopsis thaliana) (UniProt Q8LEM4); experiment: pull-down; as a1, GST-ATG8A and MBP-LCAT4 lysates with AIM wt or AIM mut competition peptide added, final concentration 200 µM
T1 sequence: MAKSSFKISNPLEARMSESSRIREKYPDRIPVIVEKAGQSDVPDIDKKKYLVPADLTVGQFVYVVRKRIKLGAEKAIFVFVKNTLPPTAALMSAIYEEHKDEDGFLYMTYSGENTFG

[2] = target: T2, GST-ATG8D (Arabidopsis thaliana) (UniProt Q9SL04); experiment: pull-down; GST-ATG8 proteins held on glutathione magnetic agarose beads; normalized E. coli clarified lysates mixed; IP buffer (100 mM NaPi pH 7.2, 300 mM NaCl, 1 mM DTT, 0.01% IGEPAL CA-630), 1 h at 4 °C; blots with anti-GST and anti-MBP
T2 sequence: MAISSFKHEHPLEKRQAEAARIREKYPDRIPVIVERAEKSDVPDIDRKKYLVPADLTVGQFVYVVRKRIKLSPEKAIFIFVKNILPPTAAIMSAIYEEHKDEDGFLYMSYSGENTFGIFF

[3] = target: T1, GST-ATG8A (Arabidopsis thaliana); experiment: as above
[4] = target: T3, GST-ATG8I (Arabidopsis thaliana) (UniProt Q9LRP7); experiment: as above
T3 sequence: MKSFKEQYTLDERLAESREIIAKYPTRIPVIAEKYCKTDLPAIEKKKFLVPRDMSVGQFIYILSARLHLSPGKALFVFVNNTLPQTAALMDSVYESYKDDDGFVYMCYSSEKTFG

[5] = target: T4, GST-ATG8G (Arabidopsis thaliana) (UniProt Q9LZZ9); experiment: as above
T4 sequence: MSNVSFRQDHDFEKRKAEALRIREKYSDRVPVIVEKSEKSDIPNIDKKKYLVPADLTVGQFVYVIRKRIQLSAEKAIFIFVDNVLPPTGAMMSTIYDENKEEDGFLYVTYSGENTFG

[6] = target: T5, GST-ATG8B (Arabidopsis thaliana) (UniProt Q9XEB5); experiment: as above
T5 sequence: T1 sequence with A2E, S4N, I8L, A14M, S17A, S20T, E24A, D28E, I30V, V58I

[7] = target: T6, GST-ATG8H (Arabidopsis thaliana) (UniProt Q8S925); experiment: as above
T6 sequence: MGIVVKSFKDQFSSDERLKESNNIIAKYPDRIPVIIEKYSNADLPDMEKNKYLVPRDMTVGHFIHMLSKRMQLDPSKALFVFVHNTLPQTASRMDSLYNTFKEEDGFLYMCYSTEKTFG

[8] = target: T7, GST-ATG8C (Arabidopsis thaliana) (UniProt Q8S927); experiment: as above
T7 sequence: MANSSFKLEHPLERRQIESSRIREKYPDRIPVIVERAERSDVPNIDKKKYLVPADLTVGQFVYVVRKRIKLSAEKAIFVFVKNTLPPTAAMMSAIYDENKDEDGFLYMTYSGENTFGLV

[9] = target: T8, GST-ATG8F (Arabidopsis thaliana) (UniProt Q8VYK7); experiment: as above
T8 sequence: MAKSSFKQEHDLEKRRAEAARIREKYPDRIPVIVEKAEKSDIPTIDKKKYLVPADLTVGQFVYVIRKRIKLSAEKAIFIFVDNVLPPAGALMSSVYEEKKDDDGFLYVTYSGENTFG

[10] = target: T9, GFP-ATG8A (Arabidopsis thaliana) (UniProt Q8LEM4); experiment: co-IP; GFP-Trap magnetic agarose beads on cleared lysates of about 100 seedlings (GFP-ATG8A expressing lcat3,4, complemented with LCAT4-RFP or LCAT4^AIM-RFP), after 1 h in MS-NC; 1 h at 4 °C; 25 mM Tris-HCl, 150 mM NaCl, 0.1% IGEPAL; Western blot
T9 sequence: T1 sequence

Measured: binding

B1: MBP-LCAT4 (enzyme, UniProt Q71N54 1-535)
chain: MSLLLEEIIRSVEALLKLRNRNQEPYVDPNLNPVLLVPGIAGSILNAVDHENGNEERVWVRIFGADHEFRTKMWSRFDPSTGKTISLDPKTSIVVPQDRAGLHAIDVLDPDMIVGRESVYYFHEMIVEMIGWGFEEGKTLFGFGYDFRQSNRLQETLDQFAKKLETVYKASGEKKINVISHSMGGLLVKCFMGLHSDIFEKYVQNWIAIAAPFRGAPGYITSTLLNGMSFVNGWEQNFFVSKWSMHQLLIECPSIYELMCCPYFKWELPPVLELWREKESNDGVGTSYVVLESYCSLESLEVFTKSLSNNTADYCGESIDLPFNWKIMEWAHKTKQVLASAKLPPKVKFYNIYGTNLETPHSVCYGNEKMPVKDLTNLRYFQPTYICVDGDGTVPMESAMADGLEAVARVGVPGEHRGILNDHRVFRMLKKWLNVGEPDPFYNPVNDYVILPTTYEFEKFHENGLEVASVKESWDIISDDNNIGTTGSTVNSISVSQPGDDQNPQAEARATLTVQPQSDGRQHVELNAVSVSVDA
not listed: [10]
binds: all other assays above

B2: LCAT4-RFP (enzyme, UniProt Q71N54 1-535)
chain: B1 chain
binds: [10]
